Results are given in words; binding and its absence hold for the method and conditions named. Some results given as binding are weak or reduced against the parent protein; the word gives no strength.
Target: PD-1 (CHO-PD-1, 表达PD-1的CHO细胞) (human) (UniProt Q15116)
Experiment: FACS of 293T transfection supernatant on CHO-PD-1 cells, goat anti-mouse IgG Fc-FITC

Chains of the proteins cited; added tags and fusions are not shown. Residues count along the entry.
UniProt Q15116, residues 25-288: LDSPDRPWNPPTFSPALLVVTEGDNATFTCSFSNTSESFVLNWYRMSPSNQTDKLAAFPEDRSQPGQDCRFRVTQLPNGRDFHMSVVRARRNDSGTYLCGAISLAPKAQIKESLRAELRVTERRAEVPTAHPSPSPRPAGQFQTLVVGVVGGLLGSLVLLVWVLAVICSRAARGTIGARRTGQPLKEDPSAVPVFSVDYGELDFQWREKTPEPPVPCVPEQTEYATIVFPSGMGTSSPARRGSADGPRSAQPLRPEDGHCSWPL

binding: binds
B1: PD1-05-4C3-1D12-1C8重组抗体 (antibody, V domains shown)
VH: EVLLQQSGPELVKPGASVKISCKASGYTFSDNNIDWVRQSHGKSLEWIGDINPSNGGVIYKQNFEGKAILTVDKSSSTAYMELRSLTSEDTSVYYCARTRSDGMDYWGQGTSVTVSS
VL: DIQMTQSPASQSASLGESVTITCLASQTIGTWLAWYQQKPGKSPQLLIYDATSLTDGVPSRFSGSGSGTKFSFKISSLQAEDFVSYYCQQFYSTPFTFGSGTKLEIK

From patent CN113336848A
